Results as given in the supplement of paper PMC12823440, “Inhibitors supercharge kinase turnover through native proteolytic circuits” (Nature, 2025).
Where a name gives a salt, the structure may show the parent alone. Some of the results follow. The calls rarely recur for the same compound in another form.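 Kinases were expressed as nanoluciferase fusions in K562 cells and luminescence was read every 4 h between 2 and 18 h as percent of control, DMSO set to 100% and a positive control to 0%. A time point counts as decreased when the signal drops significantly (2 sigma). The hit call is the authors' own, does not follow from the count of time points alone, and its rule is not shown.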

Protein sequences, listed by entry. Tags and fused reporters are not part of them.
UniProt P42356, whole entry, looked up: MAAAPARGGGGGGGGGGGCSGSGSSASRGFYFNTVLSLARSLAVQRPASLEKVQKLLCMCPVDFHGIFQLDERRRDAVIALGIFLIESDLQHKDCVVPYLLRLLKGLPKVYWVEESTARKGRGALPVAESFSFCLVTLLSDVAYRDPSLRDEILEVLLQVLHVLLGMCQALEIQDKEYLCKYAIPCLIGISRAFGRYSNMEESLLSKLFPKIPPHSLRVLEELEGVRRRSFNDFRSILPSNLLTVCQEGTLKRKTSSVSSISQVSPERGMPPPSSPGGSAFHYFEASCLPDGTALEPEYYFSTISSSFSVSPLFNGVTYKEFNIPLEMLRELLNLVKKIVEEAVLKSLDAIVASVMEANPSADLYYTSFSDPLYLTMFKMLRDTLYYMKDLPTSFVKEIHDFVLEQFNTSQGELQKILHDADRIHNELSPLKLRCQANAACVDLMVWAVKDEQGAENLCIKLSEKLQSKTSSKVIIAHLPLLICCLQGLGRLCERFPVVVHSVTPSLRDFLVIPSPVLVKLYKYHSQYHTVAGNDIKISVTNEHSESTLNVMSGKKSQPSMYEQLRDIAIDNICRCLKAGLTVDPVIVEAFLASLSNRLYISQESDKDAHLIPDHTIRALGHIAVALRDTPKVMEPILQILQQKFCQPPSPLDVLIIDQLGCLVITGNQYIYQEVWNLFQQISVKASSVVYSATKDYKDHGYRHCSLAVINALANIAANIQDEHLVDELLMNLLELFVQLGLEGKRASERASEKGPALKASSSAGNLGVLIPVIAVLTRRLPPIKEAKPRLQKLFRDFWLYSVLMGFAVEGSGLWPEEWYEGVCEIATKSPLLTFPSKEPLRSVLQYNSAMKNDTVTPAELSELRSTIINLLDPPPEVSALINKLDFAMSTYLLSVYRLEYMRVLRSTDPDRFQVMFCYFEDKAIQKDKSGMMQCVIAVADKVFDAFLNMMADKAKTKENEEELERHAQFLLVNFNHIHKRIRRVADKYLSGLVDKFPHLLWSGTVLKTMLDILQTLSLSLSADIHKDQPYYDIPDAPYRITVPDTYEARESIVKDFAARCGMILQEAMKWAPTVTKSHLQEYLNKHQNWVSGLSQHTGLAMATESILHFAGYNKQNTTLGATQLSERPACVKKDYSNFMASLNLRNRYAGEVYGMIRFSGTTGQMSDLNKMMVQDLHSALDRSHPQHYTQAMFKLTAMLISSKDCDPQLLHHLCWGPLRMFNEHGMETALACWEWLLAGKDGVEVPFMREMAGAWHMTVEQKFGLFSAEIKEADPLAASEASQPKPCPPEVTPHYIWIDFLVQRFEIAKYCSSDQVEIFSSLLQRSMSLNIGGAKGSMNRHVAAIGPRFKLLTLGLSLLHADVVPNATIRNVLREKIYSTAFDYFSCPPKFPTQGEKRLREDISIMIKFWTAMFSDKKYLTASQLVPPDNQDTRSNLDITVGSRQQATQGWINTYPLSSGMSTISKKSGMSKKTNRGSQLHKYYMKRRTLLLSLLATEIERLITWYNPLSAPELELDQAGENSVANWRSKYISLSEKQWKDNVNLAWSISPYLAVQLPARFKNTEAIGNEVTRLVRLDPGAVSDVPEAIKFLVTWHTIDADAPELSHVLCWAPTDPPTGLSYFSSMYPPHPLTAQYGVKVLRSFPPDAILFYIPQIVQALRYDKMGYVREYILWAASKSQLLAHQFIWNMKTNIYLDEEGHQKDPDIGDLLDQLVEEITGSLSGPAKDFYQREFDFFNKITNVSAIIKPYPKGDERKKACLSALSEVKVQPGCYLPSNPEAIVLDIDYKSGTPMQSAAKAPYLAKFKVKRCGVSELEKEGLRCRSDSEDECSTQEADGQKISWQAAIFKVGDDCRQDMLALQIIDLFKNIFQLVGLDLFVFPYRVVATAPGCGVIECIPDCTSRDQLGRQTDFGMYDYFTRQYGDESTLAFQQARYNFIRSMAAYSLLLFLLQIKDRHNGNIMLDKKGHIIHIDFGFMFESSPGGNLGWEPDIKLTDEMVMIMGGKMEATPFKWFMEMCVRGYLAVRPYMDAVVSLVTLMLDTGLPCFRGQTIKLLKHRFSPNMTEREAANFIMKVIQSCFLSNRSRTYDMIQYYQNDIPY
UniProt Q14289, whole entry, looked up: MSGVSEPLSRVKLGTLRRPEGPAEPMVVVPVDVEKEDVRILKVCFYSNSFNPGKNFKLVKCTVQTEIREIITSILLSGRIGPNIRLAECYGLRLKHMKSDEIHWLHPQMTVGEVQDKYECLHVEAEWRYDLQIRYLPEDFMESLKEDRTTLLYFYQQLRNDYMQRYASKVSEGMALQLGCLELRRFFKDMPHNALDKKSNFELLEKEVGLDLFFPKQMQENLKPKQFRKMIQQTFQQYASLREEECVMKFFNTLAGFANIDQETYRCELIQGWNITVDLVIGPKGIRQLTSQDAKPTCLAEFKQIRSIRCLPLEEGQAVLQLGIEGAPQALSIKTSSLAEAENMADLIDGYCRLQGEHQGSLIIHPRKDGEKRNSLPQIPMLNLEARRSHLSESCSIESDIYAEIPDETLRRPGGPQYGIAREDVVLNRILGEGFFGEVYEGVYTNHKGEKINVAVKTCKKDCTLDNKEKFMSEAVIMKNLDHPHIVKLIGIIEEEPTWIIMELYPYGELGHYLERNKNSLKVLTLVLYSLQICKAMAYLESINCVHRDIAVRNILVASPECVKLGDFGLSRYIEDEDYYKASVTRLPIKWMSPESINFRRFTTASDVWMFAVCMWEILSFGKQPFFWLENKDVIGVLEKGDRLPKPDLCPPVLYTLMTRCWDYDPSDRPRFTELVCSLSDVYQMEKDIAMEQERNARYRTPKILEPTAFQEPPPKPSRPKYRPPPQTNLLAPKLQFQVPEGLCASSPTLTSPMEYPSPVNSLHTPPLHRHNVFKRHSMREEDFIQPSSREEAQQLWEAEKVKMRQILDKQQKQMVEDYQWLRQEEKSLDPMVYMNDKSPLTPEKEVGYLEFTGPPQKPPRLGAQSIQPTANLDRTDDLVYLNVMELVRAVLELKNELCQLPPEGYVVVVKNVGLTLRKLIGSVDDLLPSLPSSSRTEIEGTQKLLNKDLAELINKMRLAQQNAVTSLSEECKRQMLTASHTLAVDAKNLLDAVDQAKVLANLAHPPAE
UniProt P07949, whole entry, looked up: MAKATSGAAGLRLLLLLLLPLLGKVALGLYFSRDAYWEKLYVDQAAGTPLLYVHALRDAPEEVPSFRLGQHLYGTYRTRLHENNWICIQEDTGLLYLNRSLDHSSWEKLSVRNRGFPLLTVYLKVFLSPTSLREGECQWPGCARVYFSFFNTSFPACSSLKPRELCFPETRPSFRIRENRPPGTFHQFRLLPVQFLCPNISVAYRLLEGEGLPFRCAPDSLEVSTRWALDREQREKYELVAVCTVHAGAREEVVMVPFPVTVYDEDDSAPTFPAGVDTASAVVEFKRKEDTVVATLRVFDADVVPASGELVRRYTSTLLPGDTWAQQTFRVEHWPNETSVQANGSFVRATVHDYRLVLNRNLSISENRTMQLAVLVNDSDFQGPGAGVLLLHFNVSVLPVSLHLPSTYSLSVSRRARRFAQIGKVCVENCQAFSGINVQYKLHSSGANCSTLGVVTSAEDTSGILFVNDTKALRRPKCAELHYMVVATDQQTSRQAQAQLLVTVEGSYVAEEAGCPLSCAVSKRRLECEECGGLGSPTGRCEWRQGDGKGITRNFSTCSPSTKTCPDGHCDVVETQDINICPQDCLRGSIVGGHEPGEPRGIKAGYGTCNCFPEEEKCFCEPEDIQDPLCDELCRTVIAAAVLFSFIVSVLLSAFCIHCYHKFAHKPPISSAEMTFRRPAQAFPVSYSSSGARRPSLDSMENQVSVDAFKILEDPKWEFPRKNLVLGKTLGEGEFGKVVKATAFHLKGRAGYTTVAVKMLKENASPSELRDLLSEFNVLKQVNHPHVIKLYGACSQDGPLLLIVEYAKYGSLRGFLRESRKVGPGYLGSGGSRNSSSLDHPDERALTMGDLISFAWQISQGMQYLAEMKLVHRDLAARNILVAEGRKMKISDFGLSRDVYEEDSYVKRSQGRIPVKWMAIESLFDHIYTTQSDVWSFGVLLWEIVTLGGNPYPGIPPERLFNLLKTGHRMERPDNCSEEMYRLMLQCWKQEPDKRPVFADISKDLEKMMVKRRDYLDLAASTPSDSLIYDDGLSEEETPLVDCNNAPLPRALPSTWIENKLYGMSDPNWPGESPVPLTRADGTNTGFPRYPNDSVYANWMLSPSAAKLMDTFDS
UniProt P07949, whole entry M918T, looked up: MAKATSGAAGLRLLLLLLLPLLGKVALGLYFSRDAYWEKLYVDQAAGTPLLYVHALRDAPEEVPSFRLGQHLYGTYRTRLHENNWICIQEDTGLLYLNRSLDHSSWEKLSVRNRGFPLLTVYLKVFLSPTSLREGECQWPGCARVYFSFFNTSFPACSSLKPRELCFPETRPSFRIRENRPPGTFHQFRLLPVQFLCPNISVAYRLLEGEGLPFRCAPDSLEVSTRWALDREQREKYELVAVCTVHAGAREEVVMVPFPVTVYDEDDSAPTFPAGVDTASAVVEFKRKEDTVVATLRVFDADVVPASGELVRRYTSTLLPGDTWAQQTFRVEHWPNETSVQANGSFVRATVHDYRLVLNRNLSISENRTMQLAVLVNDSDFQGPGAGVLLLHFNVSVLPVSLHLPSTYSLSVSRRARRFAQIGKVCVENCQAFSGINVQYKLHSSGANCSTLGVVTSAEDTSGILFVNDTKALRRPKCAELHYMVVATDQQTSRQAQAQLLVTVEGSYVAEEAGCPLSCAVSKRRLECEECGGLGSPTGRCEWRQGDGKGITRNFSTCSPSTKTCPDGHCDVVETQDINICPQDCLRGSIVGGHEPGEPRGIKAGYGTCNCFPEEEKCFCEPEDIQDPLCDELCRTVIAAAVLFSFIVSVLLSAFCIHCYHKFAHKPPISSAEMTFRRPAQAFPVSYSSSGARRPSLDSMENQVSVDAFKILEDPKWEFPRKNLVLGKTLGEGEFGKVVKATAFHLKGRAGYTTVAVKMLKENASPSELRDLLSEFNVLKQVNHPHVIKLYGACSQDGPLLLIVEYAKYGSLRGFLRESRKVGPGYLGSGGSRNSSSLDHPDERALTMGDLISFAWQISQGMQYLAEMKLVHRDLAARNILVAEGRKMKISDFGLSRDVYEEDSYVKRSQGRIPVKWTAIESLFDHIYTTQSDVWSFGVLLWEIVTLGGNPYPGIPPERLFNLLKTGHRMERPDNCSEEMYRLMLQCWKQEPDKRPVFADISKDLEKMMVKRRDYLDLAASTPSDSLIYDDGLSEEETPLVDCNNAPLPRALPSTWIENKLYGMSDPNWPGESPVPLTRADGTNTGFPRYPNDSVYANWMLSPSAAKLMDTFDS
UniProt Q01974, whole entry: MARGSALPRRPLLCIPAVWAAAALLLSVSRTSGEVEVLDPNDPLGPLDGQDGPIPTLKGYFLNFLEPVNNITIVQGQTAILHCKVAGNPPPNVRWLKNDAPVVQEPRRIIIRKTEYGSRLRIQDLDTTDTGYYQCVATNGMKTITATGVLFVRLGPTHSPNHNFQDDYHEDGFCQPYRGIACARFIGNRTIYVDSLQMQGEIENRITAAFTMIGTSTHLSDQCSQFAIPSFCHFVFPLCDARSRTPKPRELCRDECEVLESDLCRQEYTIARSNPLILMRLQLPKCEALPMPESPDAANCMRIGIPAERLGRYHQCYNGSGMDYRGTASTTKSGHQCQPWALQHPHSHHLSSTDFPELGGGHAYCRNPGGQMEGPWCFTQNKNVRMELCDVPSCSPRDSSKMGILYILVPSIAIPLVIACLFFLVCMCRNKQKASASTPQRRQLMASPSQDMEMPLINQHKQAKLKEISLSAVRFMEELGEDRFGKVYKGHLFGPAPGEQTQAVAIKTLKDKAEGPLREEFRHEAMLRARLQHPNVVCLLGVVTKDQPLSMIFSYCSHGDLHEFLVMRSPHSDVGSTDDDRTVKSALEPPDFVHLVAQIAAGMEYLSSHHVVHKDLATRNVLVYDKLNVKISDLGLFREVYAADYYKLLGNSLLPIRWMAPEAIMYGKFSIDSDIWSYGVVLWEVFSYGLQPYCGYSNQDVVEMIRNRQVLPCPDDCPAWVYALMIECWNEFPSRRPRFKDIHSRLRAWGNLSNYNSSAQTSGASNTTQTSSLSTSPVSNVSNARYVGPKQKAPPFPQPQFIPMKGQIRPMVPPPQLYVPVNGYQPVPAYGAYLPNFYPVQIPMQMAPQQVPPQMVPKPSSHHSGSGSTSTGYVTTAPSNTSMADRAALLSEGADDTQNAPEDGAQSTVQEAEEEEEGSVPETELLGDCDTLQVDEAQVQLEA

Key:
Assay in all cases: kinase-Nluc reporter destabilization hit call (1 = scored as downregulated) (binary); higher = compound decreases kinase abundance
Settings in all cases: K562; 2-18 h
PDPK1 = PDPK1 (UniProt O15530)
PIK4CA = PIK4CA (UniProt P42356)
PIK4CB = PIK4CB (UniProt Q9UBF8)
PLK1 = PLK1 (UniProt P53350)
PRKAA1 = PRKAA1 (UniProt Q13131)
PRKCA = PRKCA (UniProt P17252)
PTK2 = PTK2 (UniProt Q05397)
PTK2B = PTK2B (UniProt Q14289)
RAF1 = RAF1 (UniProt P04049)
[1] = biological target: RAF1_S257L (clone: RAF1_mut) (UniProt P04049)
RET = RET (UniProt P07949)
[2] = biological target: RET_M918T (clone: RET_mut) (UniProt P07949)
RIOK1 = RIOK1 (UniProt Q9BRS2)
RIPK1 = RIPK1 (UniProt Q13546)
RIPK2 = RIPK2 (UniProt O43353)
ROR2 = ROR2 (UniProt Q01974)
RPS6KA1 = RPS6KA1 (UniProt Q15418)
SPHK1 = SPHK1 (UniProt Q9NYA1)
SRC = SRC (UniProt P12931)
STK24 = STK24 (UniProt Q9Y6E0)

Measured: kinase-Nluc reporter destabilization hit call

C[C@@H]1C[C@H]2O[C@@]3(O[C@@H]2C(C)(C)O)[C@H](O)[C@@]2(C)[C@@H]4CC[C@H]5C(C)(C)[C@@H](O[C@@H]6OC[C@H](O)[C@H](O)[C@H]6O)CC[C@@]56C[C@@]46CC[C@]2(C)[C@@H]13 [Cimiracemoside C] (10 µM)
inactive: PDPK1 = 0 | PIK4CA 0 | PIK4CB 0 | PLK1 = 0 | PRKAA1 = 0 | PRKCA 0 | PTK2 = 0 | PTK2B 0 | RAF1 = 0 | [1] 0 | RET 0 | [2] 0 | RIOK1 = 0 | RIPK1 = 0 | RIPK2 = 0 | ROR2 = 0 | RPS6KA1 = 0 | SPHK1 = 0 | SRC 0 | STK24 = 0

CC[C@H](C)[C@H](NC(=O)[C@H](CCC(=O)O)NC(=O)[C@H](CCCN=C(N)N)NC(=O)[C@H](CCCN=C(N)N)NC(=O)[C@@H](N)CCCCN)C(=O)N[C@@H](CC(C)C)C(=O)N[C@@H](CO)C(=O)N[C@@H](CCCN=C(N)N)C(=O)N[C@@H](CCCN=C(N)N)C(=O)N1CCC[C@H]1C(=O)N[C@@H](CO)C(=O)N[C@@H](Cc1ccc(O)cc1)C(=O)N[C@@H](CCCN=C(N)N)C(=O)O [CREBtide] (10 µM)
inactive: PDPK1 = 0 | PIK4CA 0 | PIK4CB 0 | PLK1 = 0 | PRKAA1 = 0 | PRKCA 0 | PTK2 = 0 | PTK2B 0 | RAF1 = 0 | [1] 0 | RET 0 | [2] 0 | RIOK1 = 0 | RIPK1 = 0 | RIPK2 = 0 | ROR2 = 0 | RPS6KA1 = 0 | SPHK1 = 0 | SRC 0 | STK24 = 0

O=C(NOCCO)c1ccc2cncn2c1Nc1ccc(I)cc1F (10 µM)
inactive: PDPK1 = 0 | PIK4CA 0 | PIK4CB 0 | PLK1 = 0 | PRKAA1 = 0 | PRKCA 0 | PTK2 = 0 | PTK2B 0 | RAF1 = 0 | [1] 0 | RET 0 | [2] 0 | RIOK1 = 0 | RIPK1 = 0 | RIPK2 = 0 | ROR2 = 0 | RPS6KA1 = 0 | SPHK1 = 0 | SRC 0 | STK24 = 0

C[C@@H]1O[C@@H](OC[C@H]2O[C@@H](Oc3cc(O)c4c(c3)O[C@H](c3ccc(O)cc3)CC4=O)[C@H](O)[C@@H](O)[C@@H]2O)[C@H](O)[C@H](O)[C@H]1O [Narirutin] (10 µM)
inactive: PDPK1 = 0 | PIK4CA 0 | PIK4CB 0 | PLK1 = 0 | PRKAA1 = 0 | PRKCA 0 | PTK2 = 0 | PTK2B 0 | RAF1 = 0 | [1] 0 | RET 0 | [2] 0 | RIOK1 = 0 | RIPK1 = 0 | RIPK2 = 0 | ROR2 = 0 | RPS6KA1 = 0 | SPHK1 = 0 | SRC 0 | STK24 = 0

CC[C@@H](N)CNc1ccnc(-c2cc(-c3cnn(C)c3)ccc2O)n1 (2.5 µM)
inactive: PDPK1 = 0 | PIK4CA 0 | PIK4CB 0 | PLK1 = 0 | PRKAA1 = 0 | PRKCA 0 | PTK2 = 0 | PTK2B 0 | RAF1 = 0 | [1] 0 | RET 0 | [2] 0 | RIOK1 = 0 | RIPK1 = 0 | RIPK2 = 0 | ROR2 = 0 | RPS6KA1 = 0 | SPHK1 = 0 | SRC 0 | STK24 = 0

CC(C)(O)[C@@H]1CC[C@](C)([C@H]2[C@@H](O)C[C@@]3(C)[C@@H]4C[C@H](O[C@@H]5O[C@H](CO)[C@@H](O)[C@H](O)[C@H]5O)[C@H]5C(C)(C)[C@@H](O[C@@H]6OC[C@@H](O)[C@H](O)[C@H]6O[C@@H]6O[C@H](CO)[C@@H](O)[C@H](O)[C@H]6O)CC[C@@]56C[C@@]46CC[C@]23C)O1 [Astragaloside VI] (10 µM)
inactive: PDPK1 = 0 | PIK4CA 0 | PIK4CB 0 | PLK1 = 0 | PRKAA1 = 0 | PRKCA 0 | PTK2 = 0 | PTK2B 0 | RAF1 = 0 | [1] 0 | RET 0 | [2] 0 | RIOK1 = 0 | RIPK1 = 0 | RIPK2 = 0 | ROR2 = 0 | RPS6KA1 = 0 | SPHK1 = 0 | SRC 0 | STK24 = 0

Cc1cc(C(C)Nc2ccccc2)c2nc(N3CCOCC3)cc(=O)n2c1 (stereo not given) (10 µM)
inactive: PDPK1 = 0 | PIK4CA 0 | PIK4CB 0 | PLK1 = 0 | PRKAA1 = 0 | PRKCA 0 | PTK2 = 0 | PTK2B 0 | RAF1 = 0 | [1] 0 | RET 0 | [2] 0 | RIOK1 = 0 | RIPK1 = 0 | RIPK2 = 0 | ROR2 = 0 | RPS6KA1 = 0 | SPHK1 = 0 | SRC 0 | STK24 = 0

COc1c(C)c(C(=O)c2ccc(N)c(C(=O)O)c2)n2ccccc12 (10 µM)
inactive: PDPK1 = 0 | PIK4CA 0 | PIK4CB 0 | PLK1 = 0 | PRKAA1 = 0 | PRKCA 0 | PTK2 = 0 | PTK2B 0 | RAF1 = 0 | [1] 0 | RET 0 | [2] 0 | RIOK1 = 0 | RIPK1 = 0 | RIPK2 = 0 | ROR2 = 0 | RPS6KA1 = 0 | SPHK1 = 0 | SRC 0 | STK24 = 0

CCCCOc1ccc(CC/C=C2\SC(=O)N(CCN)C2=O)cc1 [K145 (hydrochloride)] (2.5 µM)
inactive: PDPK1 = 0 | PIK4CA 0 | PIK4CB 0 | PLK1 = 0 | PRKAA1 = 0 | PRKCA 0 | PTK2 = 0 | PTK2B 0 | RAF1 = 0 | [1] 0 | RET 0 | [2] 0 | RIOK1 = 0 | RIPK1 = 0 | RIPK2 = 0 | ROR2 = 0 | RPS6KA1 = 0 | SPHK1 = 0 | SRC 0 | STK24 = 0

CCC(C)(C)C(=O)N(O)Cc1ccccc1 (10 µM)
inactive: PDPK1 = 0 | PIK4CA 0 | PIK4CB 0 | PLK1 = 0 | PRKAA1 = 0 | PRKCA 0 | PTK2 = 0 | PTK2B 0 | RAF1 = 0 | [1] 0 | RET 0 | [2] 0 | RIOK1 = 0 | RIPK1 = 0 | RIPK2 = 0 | ROR2 = 0 | RPS6KA1 = 0 | SPHK1 = 0 | SRC 0 | STK24 = 0

CN(C)c1nc2c(Br)c(Br)c(Br)c(Br)c2n1CC(=O)O (10 µM)
inactive: PDPK1 = 0 | PIK4CA 0 | PIK4CB 0 | PLK1 = 0 | PRKAA1 = 0 | PRKCA 0 | PTK2 = 0 | PTK2B 0 | RAF1 = 0 | [1] 0 | RET 0 | [2] 0 | RIOK1 = 0 | RIPK1 = 0 | RIPK2 = 0 | ROR2 = 0 | RPS6KA1 = 0 | SPHK1 = 0 | SRC 0 | STK24 = 0

C[C@@H]1COCCN1c1cc(C2([S@](C)(=N)=O)CC2)nc(-c2cc[nH]c3nccc2-3)n1 [Ceralasertib] (2.5 µM)
inactive: PDPK1 = 0 | PIK4CA 0 | PIK4CB 0 | PLK1 = 0 | PRKAA1 = 0 | PRKCA 0 | PTK2 = 0 | PTK2B 0 | RAF1 = 0 | [1] 0 | RET 0 | [2] 0 | RIOK1 = 0 | RIPK1 = 0 | RIPK2 = 0 | ROR2 = 0 | RPS6KA1 = 0 | SPHK1 = 0 | SRC 0 | STK24 = 0

COc1cc(N2CCC(N3CCN(C)CC3)CC2)ccc1Nc1nc2c(c(Nc3ccccc3S(=O)(=O)NC(C)C)n1)CCN2 [Conteltinib] (10 µM)
inactive: PDPK1 = 0 | PIK4CA 0 | PIK4CB 0 | PLK1 = 0 | PRKAA1 = 0 | PRKCA 0 | PTK2 = 0 | PTK2B 0 | RAF1 = 0 | [1] 0 | RET 0 | [2] 0 | RIOK1 = 0 | RIPK1 = 0 | RIPK2 = 0 | ROR2 = 0 | RPS6KA1 = 0 | SPHK1 = 0 | SRC 0 | STK24 = 0

3 structures out of the list, arranged by heavy-atom count, ascending.
CC[C@@H](N)CNc1ccnc(-c2cc(-c3cnn(C)c3)ccc2O)n1 (2.5 µM)
inactive: PDPK1 = 0 | PIK4CA 0 | PIK4CB 0 | PLK1 = 0 | PRKAA1 = 0 | PRKCA 0 | PTK2 = 0 | PTK2B 0 | RAF1 = 0 | [1] 0 | RET 0 | [2] 0 | RIOK1 = 0 | RIPK1 = 0 | RIPK2 = 0 | ROR2 = 0 | RPS6KA1 = 0 | SPHK1 = 0 | SRC 0 | STK24 = 0

C[C@@H]1O[C@@H](OC[C@H]2O[C@@H](Oc3cc(O)c4c(c3)O[C@H](c3ccc(O)cc3)CC4=O)[C@H](O)[C@@H](O)[C@@H]2O)[C@H](O)[C@H](O)[C@H]1O [Narirutin] (10 µM)
inactive: PDPK1 = 0 | PIK4CA 0 | PIK4CB 0 | PLK1 = 0 | PRKAA1 = 0 | PRKCA 0 | PTK2 = 0 | PTK2B 0 | RAF1 = 0 | [1] 0 | RET 0 | [2] 0 | RIOK1 = 0 | RIPK1 = 0 | RIPK2 = 0 | ROR2 = 0 | RPS6KA1 = 0 | SPHK1 = 0 | SRC 0 | STK24 = 0

CC(C)(O)[C@@H]1CC[C@](C)([C@H]2[C@@H](O)C[C@@]3(C)[C@@H]4C[C@H](O[C@@H]5O[C@H](CO)[C@@H](O)[C@H](O)[C@H]5O)[C@H]5C(C)(C)[C@@H](O[C@@H]6OC[C@@H](O)[C@H](O)[C@H]6O[C@@H]6O[C@H](CO)[C@@H](O)[C@H](O)[C@H]6O)CC[C@@]56C[C@@]46CC[C@]23C)O1 [Astragaloside VI] (10 µM)
inactive: PDPK1 = 0 | PIK4CA 0 | PIK4CB 0 | PLK1 = 0 | PRKAA1 = 0 | PRKCA 0 | PTK2 = 0 | PTK2B 0 | RAF1 = 0 | [1] 0 | RET 0 | [2] 0 | RIOK1 = 0 | RIPK1 = 0 | RIPK2 = 0 | ROR2 = 0 | RPS6KA1 = 0 | SPHK1 = 0 | SRC 0 | STK24 = 0

(cont.)

N#C/C(=C(/N)Sc1ccc(N)cc1)c1ccccc1C(F)(F)F (10 µM)
inactive: PDPK1 = 0 | PIK4CA 0 | PIK4CB 0 | PLK1 = 0 | PRKAA1 = 0 | PRKCA 0 | PTK2 = 0 | PTK2B 0 | RAF1 = 0 | [1] 0 | RET 0 | [2] 0 | RIOK1 = 0 | RIPK1 = 0 | RIPK2 = 0 | ROR2 = 0 | RPS6KA1 = 0 | SPHK1 = 0 | SRC 0 | STK24 = 0

C=C[C@H]1[C@H](O[C@@H]2O[C@H](CO)[C@@H](O)[C@H](O)[C@H]2OC(=O)c2c(O)cc(O)cc2-c2cccc(O)c2)OC=C2C(=O)OCC[C@H]21 [Amarogentin] (10 µM)
inactive: PDPK1 = 0 | PIK4CA 0 | PIK4CB 0 | PLK1 = 0 | PRKAA1 = 0 | PRKCA 0 | PTK2 = 0 | PTK2B 0 | RAF1 = 0 | [1] 0 | RET 0 | [2] 0 | RIOK1 = 0 | RIPK1 = 0 | RIPK2 = 0 | ROR2 = 0 | RPS6KA1 = 0 | SPHK1 = 0 | SRC 0 | STK24 = 0

COc1nc(-c2ccnc(NC(=O)C3CC3)c2)sc1C(N)=O [GSK-3β inhibitor 2] (10 µM)
inactive: PDPK1 = 0 | PIK4CA 0 | PIK4CB 0 | PLK1 = 0 | PRKAA1 = 0 | PRKCA 0 | PTK2 = 0 | PTK2B 0 | RAF1 = 0 | [1] 0 | RET 0 | [2] 0 | RIOK1 = 0 | RIPK1 = 0 | RIPK2 = 0 | ROR2 = 0 | RPS6KA1 = 0 | SPHK1 = 0 | SRC 0 | STK24 = 0

O=C(O)c1ccccc1Nc1cccc(C(F)(F)F)c1 [Flufenamic acid] (10 µM)
inactive: PDPK1 = 0 | PIK4CA 0 | PIK4CB 0 | PLK1 = 0 | PRKAA1 = 0 | PRKCA 0 | PTK2 = 0 | PTK2B 0 | RAF1 = 0 | [1] 0 | RET 0 | [2] 0 | RIOK1 = 0 | RIPK1 = 0 | RIPK2 = 0 | ROR2 = 0 | RPS6KA1 = 0 | SPHK1 = 0 | SRC 0 | STK24 = 0
